Reference: patent US20150110793A1
These are yes or no findings as the source states them, for the method shown. Some entries that bind do so weakly or less than the wild type.

What was measured:
[1] = biological target: T1, Human EREG (Biacore analyte) (human) (UniProt O14944); experiment: SPR (Biacore T100, single-cycle kinetics), antibody captured on Protein A, human EREG as analyte; bar = KD of the antibody / KD of chimeric EP27
T1 sequence: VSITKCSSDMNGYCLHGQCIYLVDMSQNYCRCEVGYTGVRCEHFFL

[2] = biological target: T2, cynomolgus EREG (Biacore analyte) (cynomolgus monkey); experiment: SPR (Biacore)
T2 sequence: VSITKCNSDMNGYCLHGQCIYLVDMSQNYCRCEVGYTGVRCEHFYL

[3] = biological target: T1, Human EREG (Biacore analyte) (human); experiment: SPR (Biacore)
[4] = biological target: T2, cynomolgus EREG (Biacore analyte) (cynomolgus monkey); experiment: SPR (Biacore T100, single-cycle kinetics), antibody captured on Protein A, cynomolgus or human EREG as analyte; bar = KD for monkey Epiregulin / KD for human Epiregulin

Measured: binding

B1: H150-G1d/L21-k (antibody, human IgG1, kappa, V domains shown)
VH: QDQLVQSGAEVKKPGASVKVSCKASGFNIKDTYIQWVRQAPGQGLEWMGRIDPLRRNTKYREKFEGRVTITADTSTNTAYMELSSLRSEDTAVYYCVRSGRSFDFWGQGTLVTVSS
VL: DIQMTQSPSSLSASVGDRVTITCQASQDIHKYIAWYQQKPGQAPRLLIQYTSTLQPGVPSRFSGSGSGTDYTFTISSLQPEDIATYYCLQYDNLRTFGGGTKVEIER
binds: all assays above

B2: H204-G1d/LB-k (antibody, human IgG1, kappa, V domains shown)
VH: QDQLVQSGAEVKKPGASVKVSCKASGFNIKDTYIQWVRQAPGQGLEWMGRIDPLRRQTKYREKFEGRVTITADTSTNTAYMELSSLRAEDTAVYYCVRSGREFDFWGQGTLVTVSS
VL: DIQMTQSPSSLSASVGDRVTITCKASQDIHKYIAWYQQKPGQAPRLLIQYTSTLQPGVPSRFSGSGSGTDYTFTISSLQPEDIATYYCLQYDNLRTFGGGTKVEIKR
binds: all assays above

B3: H206-G1d/L73-k (antibody, human IgG1, kappa, V domains shown)
VH: QDQLVQSGAEVKNPGASVKVSCKASGFNIKDTYIQWVRQAPGQGLEWMGRIDPLRRQTKYREKFEGRVTITADTSTNTAYMELSSLRSEDTAVYYCVRSGREFDFWGQGTLVTVSS
VL: DIQMTQSPSSLSASVGDRVTITCRASQDIHKYIAWYQQKPGQAPRLLIQYTSTLQPGVPSRFSGSGSGTDYTFTISSLQPEDIATYYCLQYEQLRTFGGGTKVEIKR
binds: [2] | [3]

B4: H206-G1d/L53-k (antibody, human IgG1, kappa, V domains shown)
VH: QDQLVQSGAEVKNPGASVKVSCKASGFNIKDTYIQWVRQAPGQGLEWMGRIDPLRRQTKYREKFEGRVTITADTSTNTAYMELSSLRSEDTAVYYCVRSGREFDFWGQGTLVTVSS
VL: DIQMTQSPSSLSASVGDRVTITCRASQDIHKYIAWYQQKPGQAPRLLIQYTSTLQPGVPSRFSGSGSGTDYTFTISSLQPEDIATYYCLQYDNLRTFGGGTKVEIKR
binds: [2] | [3]

B5: H197-G1d/LB-k (antibody, human IgG1, kappa, V domains shown)
VH: QDQLVQSGAEVKKPGASVKVSCKASGFNIKDTYIQWVRQAPGQGLEWMGRIDPLRRQTKYHEKFEGRVTITADTSTNTAYMELSSLRSEDTAVYYCVRSGRSFDFWGQGTLVTVSS
VL: DIQMTQSPSSLSASVGDRVTITCKASQDIHKYIAWYQQKPGQAPRLLIQYTSTLQPGVPSRFSGSGSGTDYTFTISSLQPEDIATYYCLQYDNLRTFGGGTKVEIKR
binds: all assays above

B6: H154-G1d/LB-k (antibody, human IgG1, kappa, V domains shown)
VH: QDQLVQSGAEVKKPGASVKVSCKASGFNIKDTYIQWVRQAPGQGLEWMGRIDPLRRNTKYREKFEGRVTITADTSTNTAYMELSSLRSEDTAVYYCVRSGREFDFWGQGTLVTVSS
VL: DIQMTQSPSSLSASVGDRVTITCKASQDIHKYIAWYQQKPGQAPRLLIQYTSTLQPGVPSRFSGSGSGTDYTFTISSLQPEDIATYYCLQYDNLRTFGGGTKVEIKR
binds: all assays above

B7: H183-G1d/LB-k (antibody, human IgG1, kappa, V domains shown)
VH: QDQLVQSGAEVKKPGASVKVSCKASGFNIKDTYIQWVRQAPGQGLEWMGRIDPLRRQTKYREKFEGRVTITADTSTNTAYMELSSLRSEDTAVYYCVRSGREFDFWGQGTLVTVSS
VL: DIQMTQSPSSLSASVGDRVTITCKASQDIHKYIAWYQQKPGQAPRLLIQYTSTLQPGVPSRFSGSGSGTDYTFTISSLQPEDIATYYCLQYDNLRTFGGGTKVEIKR
binds: all assays above

B8: H197-G1d/L48-k (antibody, human IgG1, kappa, V domains shown)
VH: QDQLVQSGAEVKKPGASVKVSCKASGFNIKDTYIQWVRQAPGQGLEWMGRIDPLRRQTKYHEKFEGRVTITADTSTNTAYMELSSLRSEDTAVYYCVRSGRSFDFWGQGTLVTVSS
VL: DIQMTQSPSSLSASVGDRVTITCKASQDIHKYIAWYQQKPGQAPRLLIQYTSTLQPGVPSRFSGSGSGTDYTFTISSLQPEDIATYYCLQYDNRRTFGGGTKVEIKR
binds: all assays above

B9: H166-G1d/LB-k (antibody, human IgG1, kappa, V domains shown)
VH: QDQLVQSGAEVKKPGASVKVSCKASGFNIKDTYIQWVRQAPGQGLEWMGRIDPLRRQTKYREKFEGRVTITADTSTNTAYMELSSLRSEDTAVYYCVRSGTSFDFWGQGTLVTVSS
VL: DIQMTQSPSSLSASVGDRVTITCKASQDIHKYIAWYQQKPGQAPRLLIQYTSTLQPGVPSRFSGSGSGTDYTFTISSLQPEDIATYYCLQYDNLRTFGGGTKVEIKR
binds: all assays above

B10: H154-G1d/L48-k (antibody, human IgG1, kappa, V domains shown)
VH: QDQLVQSGAEVKKPGASVKVSCKASGFNIKDTYIQWVRQAPGQGLEWMGRIDPLRRNTKYREKFEGRVTITADTSTNTAYMELSSLRSEDTAVYYCVRSGREFDFWGQGTLVTVSS
VL: DIQMTQSPSSLSASVGDRVTITCKASQDIHKYIAWYQQKPGQAPRLLIQYTSTLQPGVPSRFSGSGSGTDYTFTISSLQPEDIATYYCLQYDNRRTFGGGTKVEIKR
binds: all assays above

B11: H183-G1d/L21-k (antibody, human IgG1, kappa, V domains shown)
VH: QDQLVQSGAEVKKPGASVKVSCKASGFNIKDTYIQWVRQAPGQGLEWMGRIDPLRRQTKYREKFEGRVTITADTSTNTAYMELSSLRSEDTAVYYCVRSGREFDFWGQGTLVTVSS
VL: DIQMTQSPSSLSASVGDRVTITCQASQDIHKYIAWYQQKPGQAPRLLIQYTSTLQPGVPSRFSGSGSGTDYTFTISSLQPEDIATYYCLQYDNLRTFGGGTKVEIER
binds: all assays above

B12: H193-G1d/LB-k (antibody, human IgG1, kappa, V domains shown)
VH: QDQLVQSGAEVKKPGASVKVSCKASGFNIKDTYIQWVRQAPGQGLEWMGRIDPLREQTKYREKFEGRVTITADTSTNTAYMELSSLRSEDTAVYYCVRSGRSFDFWGQGTLVTVSS
VL: DIQMTQSPSSLSASVGDRVTITCKASQDIHKYIAWYQQKPGQAPRLLIQYTSTLQPGVPSRFSGSGSGTDYTFTISSLQPEDIATYYCLQYDNLRTFGGGTKVEIKR
binds: all assays above

B13: H168-G1d/LB-k (antibody, human IgG1, kappa, V domains shown)
VH: QDQLVQSGAEVKKPGASVKVSCKASGFNIKDTYIQWVRQAPGQGLEWMGRIDPLRRSTKYREKFEGRVTITADTSTNTAYMELSSLRSEDTAVYYCVRSGTSFDFWGQGTLVTVSS
VL: DIQMTQSPSSLSASVGDRVTITCKASQDIHKYIAWYQQKPGQAPRLLIQYTSTLQPGVPSRFSGSGSGTDYTFTISSLQPEDIATYYCLQYDNLRTFGGGTKVEIKR
binds: all assays above

B14: H240-G1d/L53-k (antibody, human IgG1, kappa, V domains shown)
VH: QDQLVQSGAEVKKPGASVKVSCKASGFNIKDTYIQWVRQAPGQGLEWMGRIDPLRKQTKYREKFEGRVTITADTSTNTAYMELSSLRSEDTAVYYCVRSGREFDYWGQGTLVTVSS
VL: DIQMTQSPSSLSASVGDRVTITCRASQDIHKYIAWYQQKPGQAPRLLIQYTSTLQPGVPSRFSGSGSGTDYTFTISSLQPEDIATYYCLQYDNLRTFGGGTKVEIKR
binds: [2] | [3]

B15: H183-G1d/L48-k (antibody, human IgG1, kappa, V domains shown)
VH: QDQLVQSGAEVKKPGASVKVSCKASGFNIKDTYIQWVRQAPGQGLEWMGRIDPLRRQTKYREKFEGRVTITADTSTNTAYMELSSLRSEDTAVYYCVRSGREFDFWGQGTLVTVSS
VL: DIQMTQSPSSLSASVGDRVTITCKASQDIHKYIAWYQQKPGQAPRLLIQYTSTLQPGVPSRFSGSGSGTDYTFTISSLQPEDIATYYCLQYDNRRTFGGGTKVEIKR
binds: all assays above

B16: H213-G1d/L53-k (antibody, human IgG1, kappa, V domains shown)
VH: QDQLVQSGAEVKKPGASVKVSCKASGFNIKDTYIQWVRQAPGQGLEWMGRIDPLRHQTKYREKFEGRVTITADTSTNTAYMELSSLRSEDTAVYYCVRSGREFDFWGQGTLVTVSS
VL: DIQMTQSPSSLSASVGDRVTITCRASQDIHKYIAWYQQKPGQAPRLLIQYTSTLQPGVPSRFSGSGSGTDYTFTISSLQPEDIATYYCLQYDNLRTFGGGTKVEIKR
binds: [3]

B17: H240-G1d/L73-k (antibody, human IgG1, kappa, V domains shown)
VH: QDQLVQSGAEVKKPGASVKVSCKASGFNIKDTYIQWVRQAPGQGLEWMGRIDPLRKQTKYREKFEGRVTITADTSTNTAYMELSSLRSEDTAVYYCVRSGREFDYWGQGTLVTVSS
VL: DIQMTQSPSSLSASVGDRVTITCRASQDIHKYIAWYQQKPGQAPRLLIQYTSTLQPGVPSRFSGSGSGTDYTFTISSLQPEDIATYYCLQYEQLRTFGGGTKVEIKR
binds: [2] | [3]
